Source: article PMC6733923
These are yes or no findings as the source states them, for the method shown. Binding seen in cells or lysates may run through a third protein. These calls come from enrichment with a bait or labelling near it, and not all partners need be listed. Blank lines part the entries; values can stand above or below the binder they belong to.

Amino acid sequences for entries named in this document (tags omitted).
UniProt Q05397: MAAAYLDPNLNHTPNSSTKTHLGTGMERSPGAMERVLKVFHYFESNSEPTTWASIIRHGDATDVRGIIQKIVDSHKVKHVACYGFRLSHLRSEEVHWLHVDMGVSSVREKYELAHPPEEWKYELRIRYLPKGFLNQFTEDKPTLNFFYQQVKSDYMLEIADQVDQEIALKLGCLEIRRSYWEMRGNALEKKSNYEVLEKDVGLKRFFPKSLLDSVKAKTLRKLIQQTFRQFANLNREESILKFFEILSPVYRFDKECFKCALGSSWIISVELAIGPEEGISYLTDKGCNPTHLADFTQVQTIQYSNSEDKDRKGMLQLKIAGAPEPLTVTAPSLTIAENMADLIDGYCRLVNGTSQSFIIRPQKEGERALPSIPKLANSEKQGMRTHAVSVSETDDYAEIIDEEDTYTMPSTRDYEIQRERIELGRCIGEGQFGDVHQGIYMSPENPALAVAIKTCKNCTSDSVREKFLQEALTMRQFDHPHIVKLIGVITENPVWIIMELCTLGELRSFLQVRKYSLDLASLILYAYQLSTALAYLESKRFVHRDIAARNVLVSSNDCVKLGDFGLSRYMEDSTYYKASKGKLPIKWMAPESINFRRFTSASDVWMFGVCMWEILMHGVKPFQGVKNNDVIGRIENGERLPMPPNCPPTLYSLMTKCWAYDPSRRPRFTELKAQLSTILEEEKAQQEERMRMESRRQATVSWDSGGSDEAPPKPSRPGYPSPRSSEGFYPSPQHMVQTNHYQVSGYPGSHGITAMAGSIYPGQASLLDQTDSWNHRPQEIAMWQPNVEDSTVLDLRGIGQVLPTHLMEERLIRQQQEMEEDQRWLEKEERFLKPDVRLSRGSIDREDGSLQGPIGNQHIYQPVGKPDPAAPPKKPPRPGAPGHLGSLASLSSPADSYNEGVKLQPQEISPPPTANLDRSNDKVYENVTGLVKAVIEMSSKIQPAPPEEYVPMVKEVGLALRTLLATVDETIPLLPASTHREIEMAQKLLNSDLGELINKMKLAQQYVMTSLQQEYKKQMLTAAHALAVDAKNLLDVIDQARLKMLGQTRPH

Target: Focal adhesion kinase 1 (human (endogenous in HCT-116)) (UniProt Q05397)
Assay: affinity purification with mass spectrometry; anti-FAK polyclonal antibody and Protein A/G agarose on 1.5 mg HCT-116 total cell lysate, cells untreated (regular IP) or stimulated with 10 ng/ml EGF for 30 min; rabbit IgG as control; 1D SDS-PAGE, in-gel trypsin digestion, nano-LC-MS/MS; the proteins of Table 2 were found only with EGF …

B1: Coiled-coil domain-containing protein 86 (protein, UniProt Q9H6F5 1-360)
chain: MDTPLRRSRRLGGLRPESPESLTSVSRTRRALVEFESNPEETREPGSPPSVQRAGLGSPERPPKTSPGSPRLQQGAGLESPQGQPEPGAASPQRQQDLHLESPQRQPEYSPESPRCQPKPSEEAPKCSQDQGVLASELAQNKEELTPGAPQHQLPPVPGSPEPYPGQQAPGPEPSQPLLELTPRAPGSPRGQHEPSKPPPAGETVTGGFGAKKRKGSSSQAPASKKLNKEELPVIPKGKPKSGRVWKDRSKKRFSQMLQDKPLRTSWQRKMKERQERKLAKDFARHLEEEKERRRQEKKQRRAENLKRRLENERKAEVVQVIRNPAKLKRAKKKQLRSIEKRDTLALLQKQPPQQPAAKI
- binding: binds

B3: Guanine nucleotide-binding protein-like 3 (protein, UniProt Q9BVP2 1-549)
chain: MKRPKLKKASKRMTCHKRYKIQKKVREHHRKLRKEAKKRGHKKPRKDPGVPNSAPFKEALLREAELRKQRLEELKQQQKLDRQKELEKKRKLETNPDIKPSNVEPMEKEFGLCKTENKAKSGKQNSKKLYCQELKKVIEASDVVLEVLDARDPLGCRCPQVEEAIVQSGQKKLVLILNKSDLVPKENLESWLNYLKKELPTVVFRASTKPKDKGKITKRVKAKKNAAPFRSEVCFGKEGLWKLLGGFQETCSKAIRVGVIGFPNVGKSSIINSLKQEQMCNVGVSMGLTRSMQVVPLDKQITIIDSPSFIVSPLNSSSALALRSPASIEVVKPMEAASAILSQADARQVVLKYTVPGYRNSLEFFTVLAQRRGMHQKGGIPNVEGAAKLLWSEWTGASLAYYCHPPTSWTPPPYFNESIVVDMKSGFNLEELEKNNAQSIRAIKGPHLANSILFQSSGLTNGIIEEKDIHEELPKRKERKQEEREDDKDSDQETVDEEVDENSSGMFAAEETGEALSEETTAGEQSTRSFILDKIIEEDDAYDFSTDYV
- binding: binds

B5: Transcription factor 25 (protein, UniProt Q9BQ70 1-676)
chain: MSRRALRRLRGEQRGQEPLGPGALHFDLRDDDDAEEEGPKRELGVRRPGGAGKEGVRVNNRFELINIDDLEDDPVVNGERSGCALTDAVAPGNKGRGQRGNTESKTDGDDTETVPSEQSHASGKLRKKKKKQKNKKSSTGEASENGLEDIDRILERIEDSTGLNRPGPAPLSSRKHVLYVEHRHLNPDTELKRYFGARAILGEQRPRQRQRVYPKCTWLTTPKSTWPRYSKPGLSMRLLESKKGLSFFAFEHSEEYQQAQHKFLVAVESMEPNNIVVLLQTSPYHVDSLLQLSDACRFQEDQEMARDLVERALYSMECAFHPLFSLTSGACRLDYRRPENRSFYLALYKQMSFLEKRGCPRTALEYCKLILSLEPDEDPLCMLLLIDHLALRARNYEYLIRLFQEWEAHRNLSQLPNFAFSVPLAYFLLSQQTDLPECEQSSARQKASLLIQQALTMFPGVLLPLLESCSVRPDASVSSHRFFGPNAEISQPPALSQLVNLYLGRSHFLWKEPATMSWLEENVHEVLQAVDAGDPAVEACENRRKVLYQRAPRNIHRHVILSEIKEAVAALPPDVTTQSVMGFDPLPPSDTIYSYVRPERLSPISHGNTIALFFRSLLPNYTMEGERPEEGVAGGLNRNQGLNRLMLAVRDMMANFHLNDLEAPHEDDAEGEGEWD
- binding: binds

B6: rRNA 2’-O-methyltransferase fibrillarin (protein, UniProt P22087 1-321)
chain: MKPGFSPRGGGFGGRGGFGDRGGRGGRGGFGGGRGRGGGFRGRGRGGGGGGGGGGGGGRGGGGFHSGGNRGRGRGGKRGNQSGKNVMVEPHRHEGVFICRGKEDALVTKNLVPGESVYGEKRVSISEGDDKIEYRAWNPFRSKLAAAILGGVDQIHIKPGAKVLYLGAASGTTVSHVSDIVGPDGLVYAVEFSHRSGRDLINLAKKRTNIIPVIEDARHPHKYRMLIAMVDVIFADVAQPDQTRIVALNAHTFLRNGGHFVISIKANCIDSTASAEAVFASEVKKMQQENMKPQEQLTLEPYERDHAVVVGVYRPPPKVKN
- binding: binds

B7: Aspartyl/Asparaginyl beta-hydroxylase (protein, UniProt Q12797 1-758)
chain: MAQRKNAKSSGNSSSSGSGSGSTSAGSSSPGARRETKHGGHKNGRKGGLSGTSFFTWFMVIALLGVWTSVAVVWFDLVDYEEVLGKLGIYDADGDGDFDVDDAKVLLGLKERSTSEPAVPPEEAEPHTEPEEQVPVEAEPQNIEDEAKEQIQSLLHEMVHAEHVEGEDLQQEDGPTGEPQQEDDEFLMATDVDDRFETLEPEVSHEETEHSYHVEETVSQDCNQDMEEMMSEQENPDSSEPVVEDERLHHDTDDVTYQVYEEQAVYEPLENEGIEITEVTAPPEDNPVEDSQVIVEEVSIFPVEEQQEVPPETNRKTDDPEQKAKVKKKKPKLLNKFDKTIKAELDAAEKLRKRGKIEEAVNAFKELVRKYPQSPRARYGKAQCEDDLAEKRRSNEVLRGAIETYQEVASLPDVPADLLKLSLKRRSDRQQFLGHMRGSLLTLQRLVQLFPNDTSLKNDLGVGYLLIGDNDNAKKVYEEVLSVTPNDGFAKVHYGFILKAQNKIAESIPYLKEGIESGDPGTDDGRFYFHLGDAMQRVGNKEAYKWYELGHKRGHFASVWQRSLYNVNGLKAQPWWTPKETGYTELVKSLERNWKLIRDEGLAVMDKAKGLFLPEDENLREKGDWSQFTLWQQGRRNENACKGAPKTCTLLEKFPETTGCRRGQIKYSIMHPGTHVWPHTGPTNCRLRMHLGLVIPKEGCKIRCANETKTWEEGKVLIFDDSFEHEVWQDASSFRLIFIVDVWHPELTPQQRRSLPAI
- binding: binds

B10: splicing factor, proline- and glutamine-rich (protein, UniProt P23246-1 1-707)
chain: MSRDRFRSRGGGGGGFHRRGGGGGRGGLHDFRSPPPGMGLNQNRGPMGPGPGQSGPKPPIPPPPPHQQQQQPPPQQPPPQQPPPHQPPPHPQPHQQQQPPPPPQDSSKPVVAQGPGPAPGVGSAPPASSSAPPATPPTSGAPPGSGPGPTPTPPPAVTSAPPGAPPPTPPSSGVPTTPPQAGGPPPPPAAVPGPGPGPKQGPGPGGPKGGKMPGGPKPGGGPGLSTPGGHPKPPHRGGGEPRGGRQHHPPYHQQHHQGPPPGGPGGRSEEKISDSEGFKANLSLLRRPGEKTYTQRCRLFVGNLPADITEDEFKRLFAKYGEPGEVFINKGKGFGFIKLESRALAEIAKAELDDTPMRGRQLRVRFATHAAALSVRNLSPYVSNELLEEAFSQFGPIERAVVIVDDRGRSTGKGIVEFASKPAARKAFERCSEGVFLLTTTPRPVIVEPLEQLDDEDGLPEKLAQKNPMYQKERETPPRFAQHGTFEYEYSQRWKSLDEMEKQQREQVEKNMKDAKDKLESEMEDAYHEHQANLLRQDLMRRQEELRRMEELHNQEMQKRKEMQLRQEEERRRREEEMMIRQREMEEQMRRQREESYSRMGYMDPRERDMRMGGGGAMNMGDPYGSGGQKFPPLGGGGGIGYEANPGVPPATMSGSMMGSDMRTERFGQGGAGPVGGQGPRGMGPGTPAGYGRGREEYEGPNKKPRF
- binding: binds

Next, values leading:

- binding: binds
B2: Caprin-1 (protein, UniProt Q14444-1 1-709)
chain: MPSATSHSGSGSKSSGPPPPSGSSGSEAAAGAGAAAPASQHPATGTGAVQTEAMKQILGVIDKKLRNLEKKKGKLDDYQERMNKGERLNQDQLDAVSKYQEVTNNLEFAKELQRSFMALSQDIQKTIKKTARREQLMREEAEQKRLKTVLELQYVLDKLGDDEVRTDLKQGLNGVPILSEEELSLLDEFYKLVDPERDMSLRLNEQYEHASIHLWDLLEGKEKPVCGTTYKVLKEIVERVFQSNYFDSTHNHQNGLCEEEEAASAPAVEDQVPEAEPEPAEEYTEQSEVESTEYVNRQFMAETQFTSGEKEQVDEWTVETVEVVNSLQQQPQAASPSVPEPHSLTPVAQADPLVRRQRVQDLMAQMQGPYNFIQDSMLDFENQTLDPAIVSAQPMNPTQNMDMPQLVCPPVHSESRLAQPNQVPVQPEATQVPLVSSTSEGYTASQPLYQPSHATEQRPQKEPIDQIQATISLNTDQTTASSSLPAASQPQVFQAGTSKPLHSSGINVNAAPFQSMQTVFNMNAPVPPVNEPETLKQQNQYQASYNQSFSSQPHQVEQTELQQEQLQTVVGTYHGSPDQSHQVTGNHQQPPQQNTGFPRSNQPYYNSRGVSRGGSRGARGLMNGYRGPANGFRGGYDGYRPSFSNTPNSGYTQSQFSAPRDYSGYQRDGYQQNFKRGSGQSGPRGAPRGRGGPPRPNRGMPQMNTQQVN

- binding: binds
B4: Lamin-B2 (protein, UniProt Q03252 1-620)
chain: MSPPSPGRRREQRRPRAAATMATPLPGRAGGPATPLSPTRLSRLQEKEELRELNDRLAHYIDRVRALELENDRLLLKISEKEEVTTREVSGIKALYESELADARRVLDETARERARLQIEIGKLRAELDEVNKSAKKREGELTVAQGRVKDLESLFHRSEVELAAALSDKRGLESDVAELRAQLAKAEDGHAVAKKQLEKETLMRVDLENRCQSLQEELDFRKSVFEEEVRETRRRHERRLVEVDSSRQQEYDFKMAQALEELRSQHDEQVRLYKLELEQTYQAKLDSAKLSSDQNDKAASAAREELKEARMRLESLSYQLSGLQKQASAAEDRIRELEEAMAGERDKFRKMLDAKEQEMTEMRDVMQQQLAEYQELLDVKLALDMEINAYRKLLEGEEERLKLSPSPSSRVTVSRATSSSSGSLSATGRLGRSKRKRLEVEEPLGSGPSVLGTGTGGSGGFHLAQQASASGSVSIEEIDLEGKFVQLKNNSDKDQSLGNWRIKRQVLEGEEIAYKFTPKYILRAGQMVTVWAAGAGVAHSPPSTLVWKGQSSWGTGESFRTVLVNADGEEVAMRTVKKSSVMRENENGEEEEEEAEFGEEDLFHQQGDPRTTSRGCYVM

- binding: binds
B8: Transducin beta-like protein 2 (protein, UniProt Q9Y4P3 1-447)
chain: MELSQMSELMGLSVLLGLLALMATAAVARGWLRAGEERSGRPACQKANGFPPDKSSGSKKQKQYQRIRKEKPQQHNFTHRLLAAALKSHSGNISCMDFSSNGKYLATCADDRTIRIWSTKDFLQREHRSMRANVELDHATLVRFSPDCRAFIVWLANGDTLRVFKMTKREDGGYTFTATPEDFPKKHKAPVIDIGIANTGKFIMTASSDTTVLIWSLKGQVLSTINTNQMNNTHAAVSPCGRFVASCGFTPDVKVWEVCFGKKGEFQEVVRAFELKGHSAAVHSFAFSNDSRRMASVSKDGTWKLWDTDVEYKKKQDPYLLKTGRFEEAAGAAPCRLALSPNAQVLALASGSSIHLYNTRRGEKEECFERVHGECIANLSFDITGRFLASCGDRAVRLFHNTPGHRAMVEEMQGHLKRASNESTRQRLQQQLTQAQETLKSLGALKK

- binding: binds
B9: arginine–tRNA ligase, cytoplasmic (protein, UniProt P54136-1 1-660)
chain: MDVLVSECSARLLQQEEEIKSLTAEIDRLKNCGCLGASPNLEQLQEENLKLKYRLNILRKSLQAERNKPTKNMINIISRLQEVFGHAIKAAYPDLENPPLLVTPSQQAKFGDYQCNSAMGISQMLKTKEQKVNPREIAENITKHLPDNECIEKVEIAGPGFINVHLRKDFVSEQLTSLLVNGVQLPALGENKKVIVDFSSPNIAKEMHVGHLRSTIIGESISRLFEFAGYDVLRLNHVGDWGTQFGMLIAHLQDKFPDYLTVSPPIGDLQVFYKESKKRFDTEEEFKKRAYQCVVLLQGKNPDITKAWKLICDVSRQELNKIYDALDVSLIERGESFYQDRMNDIVKEFEDRGFVQVDDGRKIVFVPGCSIPLTIVKSDGGYTYDTSDLAAIKQRLFEEKADMIIYVVDNGQSVHFQTIFAAAQMIGWYDPKVTRVFHAGFGVVLGEDKKKFKTRSGETVRLMDLLGEGLKRSMDKLKEKERDKVLTAEELNAAQTSVAYGCIKYADLSHNRLNDYIFSFDKMLDDRGNTAAYLLYAFTRIRSIARLANIDEEMLQKAARETKILLDHEKEWKLGRCILRFPEILQKILDDLFLHTLCDYIYELATAFTEFYDSCYCVEKDRQTGKILKVNMWRMLLCEAVAAVMAKGFDILGIKPVQRM
